Experimental data as given in patent US7582424B2 (priority 2000, dated 2009).

Tested on: Ace-induced Isc response by T84 cell monolayers
Assay: cells
Format: cell-based
Settings: Homo sapiens, T84, read-out: inhibition of peak Ace-induced Isc

CN[C@@H]1C[C@H]2O[C@@](C)([C@@H]1OC)n1c3ccccc3c3c4c(c5c6ccccc6n2c5c31)C(=O)NC4 [staurosporine]
inhibition at 0.1 µM: 45%
